# Experimental data as given in patent US20260200885A1, “BENZOPYRONE COMPOUNDS AS WELL AS PREPARATION METHOD THEREFOR AND USE THEREOF” (CHENGDU DI’AO JIUHONG PHARMACEUTICAL FACTORY, priority 2022, published 2026).
# The name of at least one read-out is uncertain. Some entries repeat one wording, which the source may state once for all of them.
# Test: Pharmacokinetic assay in CD1 mice
# Type: in vivo
# Conditions: comparison in words
# Description: pharmacokinetic assay of compounds was carried out in CD1 mice aged 6-8 weeks with IMT1B as a positive control. The compounds and the positive control were dissolved in 30% aqueous hydroxypropyl-β-cyclodextrin solution containing 25% PEG400 and administered via intravenous injection (1 mg/kg) or intragastric administration (5 mg/kg). Blood samples were collected at 0.033, 0.083, 0.25, 0.5, 1, 2, 4, 8, 24 h and 0.083, 0.25, 0.5, 1, 2, 4, 8, 24 h respectively after administration.
# The concentration of the compounds in plasma samples was analyzed using the LC-MS/MS method. Pharmacokinetic calculations were performed using WinNonlin (Phoenix™, version 8.3) or other similar software. The following pharmacokinetic parameters were calculated from the plasma concentration vs. time data: for intravenous administration: T1/2, C0, AUClast, AUCinf, MRTinf, Cl, Vss, regression coefficient, etc.; for oral administration: T1/2, Cmax, Tmax, AUClast, AUCinf, bioavailability, etc. The above parameter data were statistically calculated and described using descriptive statistics such as mean value and standard deviation.
row,Structure (SMILES),bioavailability F compared with IMT1B
1,C[C@@H](Oc1ccc2c(-c3ccc(F)cc3Cl)cc(=O)oc2c1)C(=O)c1cccc(C(=O)O)c1 [Compound A1-1-5],significantly superior to IMT1B
2,C[C@H](Oc1ccc2c(-c3ccc(F)cc3Cl)cc(=O)oc2c1)C(=O)c1cccc(C(=O)O)c1 [Compound A2-1-5],significantly superior to IMT1B
3,CC(Oc1ccc2c(-c3ccc(F)cc3Cl)cc(=O)oc2c1)C(=O)c1cc(F)cc(C(=O)O)c1 (stereo not drawn) [Compound A-1-2-1-93],significantly superior to IMT1B
